According to article PMC12519566, “A TOM1 variant impairs interaction with TOLLIP, autophagosome-lysosome fusion and regulation of innate immunity” (Disease Models & Mechanisms, 2025):
Results are given in words; binding and its absence hold for the method and conditions named. In cells and extracts the contact can be indirect. A yes stands for co-enrichment or nearness to the bait. Other partners may have been found.

Biological target: TOM1 WT, MYC-BirA fusion (BioID bait) (UniProt O60784)
Assay: proximity labelling; BioID with mass spectrometry; Flp-In T-REx 293 cells induced with 2 µg/ml doxycycline and 50 µM biotin for 24 h; Strep-Tactin sepharose; three biological replicates

B1: myosin VI (natural protein, human (endogenous in Flp-In T-REx 293), UniProt Q9UM54 1-1294, looked up)
chain: MEDGKPVWAPHPTDGFQMGNIVDIGPDSLTIEPLNQKGKTFLALINQVFPAEEDSKKDVEDNCSLMYLNEATLLHNIKVRYSKDRIYTYVANILIAVNPYFDIPKIYSSEAIKSYQGKSLGTRPPHVFAIADKAFRDMKVLKMSQSIIVSGESGAGKTENTKFVLRYLTESYGTGQDIDDRIVEANPLLEAFGNAKTVRNNNSSRFGKFVEIHFNEKSSVVGGFVSHYLLEKSRICVQGKEERNYHIFYRLCAGASEDIREKLHLSSPDNFRYLNRGCTRYFANKETDKQILQNRKSPEYLKAGSMKDPLLDDHGDFIRMCTAMKKIGLDDEEKLDLFRVVAGVLHLGNIDFEEAGSTSGGCNLKNKSAQSLEYCAELLGLDQDDLRVSLTTRVMLTTAGGTKGTVIKVPLKVEQANNARDALAKTVYSHLFDHVVNRVNQCFPFETSSYFIGVLDIAGFEYFEHNSFEQFCINYCNEKLQQFFNERILKEEQELYQKEGLGVNEVHYVDNQDCIDLIEAKLVGILDILDEENRLPQPSDQHFTSAVHQKHKDHFRLTIPRKSKLAVHRNIRDDEGFIIRHFAGAVCYETTQFVEKNNDALHMSLESLICESRDKFIRELFESSTNNNKDTKQKAGKLSFISVGNKFKTQLNLLLDKLRSTGASFIRCIKPNLKMTSHHFEGAQILSQLQCSGMVSVLDLMQGGYPSRASFHELYNMYKKYMPDKLARLDPRLFCKALFKALGLNENDYKFGLTKVFFRPGKFAEFDQIMKSDPDHLAELVKRVNHWLTCSRWKKVQWCSLSVIKLKNKIKYRAEACIKMQKTIRMWLCKRRHKPRIDGLVKVGTLKKRLDKFNEVVSVLKDGKPEMNKQIKNLEISIDTLMAKIKSTMMTQEQIQKEYDALVKSSEELLSALQKKKQQEEEAERLRRIQEEMEKERKRREEDEKRRRKEEEERRMKLEMEAKRKQEEEERKKREDDEKRIQAEVEAQLARQKEEESQQQAVLEQERRDRELALRIAQSEAELISDEAQADLALRRSLDSYPVSKNDGTRPKMTPEQMAKEMSEFLSRGPAVLATKAAAGTKKYDLSKWKYAELRDTINTSCDIELLAACREEFHRRLKVYHAWKSKNKKRNTETEQRAPKSVTDYDFAPFLNNSPQQNPAAQIPARQREIEMNRQQRFFRIPFIRPADQYKDPQSKKKGWWYAHFDGPWIARQMELHPDKPPILLVAGKDDMEMCELNLEETGLTRKRGAEILPRQFEEIWERCGGIQYLQNAIESRQARPTYATAMLQSLLK
notes: myosin VI, endogenous protein found by proximity labeling mass spectrometry; source: endogenous, Flp-In T-REx 293 cells
binding: binds
